# Measured values as given in PubChem BioAssay AID624132 (Broad Institute, 2012).
# About 1,500 (94%) of roughly 1,600 compounds were called active. So high a share suggests a set chosen from earlier hits. Inconclusive means that the source gave no clear call. Such entries were picked first, then a sample of the others.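 Rule for the calls: active = signal drop with fitted half-maximal concentration at most twice the top valid dose for that sample; inconclusive = flat fit between 30 and 70% inhibition, or poor curve fit; inactive = the rest.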
# Assay: Shn3 3'UTR reporter inhibitors, dose response, cell-based, Clone20 osteoblasts, firefly luciferase, cherry-picked (AID 624132)
# Details: Clone20 osteoblast Shn3 3'UTR firefly luciferase, 24 h; at 35 µM (top of the series)
row,Structure (SMILES),"activity change, negative = inhibition"
1,CCCCCCCN1C2=NCCCN2c2ccccc21,inconclusive: -30.7%
2,COc1ccccc1-n1ccnc(SCC(=O)NCc2ccccc2Cl)c1=O,inactive: -16.1%
3,CC(Cl)=CCn1c(NCCc2ccccc2)nc2c1c(=O)n(C)c(=O)n2C,inconclusive: -46.1%
4,Fc1ccccc1N=C1NN=C(c2ccccc2)CS1,inactive: -45%
5,C=CCCc1ccc(C#N)c(SCc2c(C(=O)OCC)c3cc(OC(C)=O)c(Br)cc3n2C)n1,inconclusive: -65.4%
